For at least one compound, name, drawing or mass did not settle the structure.
How the values were obtained:
Assay type in all cases: cell-based, murine
KIA-GFP cells = assay: 3D cancer cell migration assay in oxygen-gradient HI hydrogels (real-time 3D cell tracking)
sarcoma cells (KIA) [1] = assay: Collagen deposition by encapsulated sarcoma cells (immunofluorescence); conditions: hypoxic hydrogel; minoxidil treated vs untreated
PLOD2 = PLOD2 Western blot; conditions: KIA cells in hypoxic conditions; 0.5 mM, 16 hours; vs vehicle
sarcoma cells (KIA) [2] = assay: Matrix degradation of HI hydrogels incorporating DQ gelatin; conditions: 3 days
[3] = hypoxic hydrogels, 0.5 mmol/L for 12 hours, day 3, vs untreated

Nc1cc(N2CCCCC2)nc(N)[n+]1[O-] [Minoxidil, minoxidil]
KIA cell movement (three-dimensional trajectories) (KIA-GFP cells; [3]): significantly reduced
MSD (mean square displacement) in the x, y and z directions (KIA-GFP cells; [3]): reduced
overall cell speed (KIA-GFP cells; [3]): reduced
velocity in the x, y and z directions (KIA-GFP cells; [3]): reduced
cell migration in the X and Y directions (KIA-GFP cells; nonhypoxic hydrogels): did not significantly affect
migration in the z-direction (KIA-GFP cells; nonhypoxic hydrogels): slight inhibition
collagen deposition (sarcoma cells (KIA) [1]): reduced
hypoxia-induced PLOD2 expression (PLOD2): inhibited
proteolytic degradation of the hypoxic matrices (DQ gelatin fluorescence) (sarcoma cells (KIA) [2]): inhibited

— US11530381B2, “Oxygen gradient hydrogel drug screening” (THE JOHNS HOPKINS UNIVERSITY, priority 2016, dated 2022)
